Record: PubChem BioAssay AID1159578 (Peter MacCallum Cancer Centre, 2015)

Purpose: 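Knock-downs that alter how fast lymphatic endothelial cells migrate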 (primary screen)
Cells: human lymphatic endothelial cells
Knock-down reagent: siRNA pool against human genes, 40 nM
Duration: 48 h after transfection
Measurement: 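High-content imaging of dye-stained cells in a scratch assay measures filled wound area and nuclei per well; duplicate means given as ratio to mock and robust z-score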
Direction: migration robust z-score: higher = faster migration into the scratch; migration relative to mock: higher = more scratch area covered than mock; nuclei per well: higher = more cells in the well
Hit rule: 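Migration changed when robust z exceeds 2 or falls below -2 and mean nuclei number is at least 3300; otherwise not called changed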
Meaning of the calls: active = migration changed; inactive = no migration change, or too few cells
Here is an unselected part of about 18,000 deposited reagents. About 1,030 of all reagents (5.7%) count as active. 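Inactive calls also include pools with fewer than 3300 nuclei, whose migration was not assessed.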 Raw values are not corrected between plates. A number with no mark means an inactive call.

| Gene | PubChem SID | migration robust z-score | migration class with cell-count check | migration relative to mock | nuclei per well, duplicate mean |
| --- | --- | --- | --- | --- | --- |
| MYL1 | SID255351107 | 0.69 | migration z between -2 and 2; enough cells | 1.06 | 6098 |
| LY6G5B | SID255359641 | 0.13 | migration z between -2 and 2; enough cells | 0.92 | 6214 |
| IL36G | SID255359074 | 0.81 | migration z between -2 and 2; enough cells | 1.1 | 6134 |
| POLR2J3 | SID255366038 | -0.11 | migration z between -2 and 2; enough cells | 0.86 | 5049 |
| TRIM11 | SID255360895 | -0.03 | migration z between -2 and 2; enough cells | 0.8 | 6543 |
| C16orf78 | SID255362598 | -0.06 | migration z between -2 and 2; enough cells | 0.87 | 6315 |
| ITM2B | SID255354281 | 0.83 | migration z between -2 and 2; enough cells | 1.1 | 6113 |
| TBC1D9B | SID255355960 | -1.46 | migration z between -2 and 2; enough cells | 0.51 | 6066 |
| FAM9B | SID255363935 | -0.7 | migration z between -2 and 2; enough cells | 0.7 | 5316 |
| YPEL4 | SID255364180 | -0.6 | migration z between -2 and 2; enough cells | 0.73 | 5491 |
| PIK3AP1 | SID255362454 | -2.13 (active) | migration z below -2; enough cells | 0.4 | 3867 |
| ERBB2 | SID255349541 | -0.03 | migration z between -2 and 2; enough cells | 0.8 | 5532 |
| ACAT1 | SID255348138 | 0.42 | migration z between -2 and 2; enough cells | 0.88 | 4558 |
| SRSF3 | SID255352378 | 0.48 | migration z between -2 and 2; enough cells | 1.01 | 5538 |
| ABCB7 | SID255348122 | -0.83 | migration z between -2 and 2; enough cells | 0.64 | 6481 |
| CHRNA9 | SID255358697 | 1.04 | migration z between -2 and 2; enough cells | 1 | 4764 |
| ATP6V1D | SID255357691 | -1.27 | migration z between -2 and 2; enough cells | 0.56 | 3804 |
| OR51M1 | SID255365599 | 0.46 | migration z between -2 and 2; enough cells | 1 | 5804 |
| RARRES1 | SID255352050 | 0.52 | migration z between -2 and 2; enough cells | 1.02 | 6121 |
| ABCE1 | SID255352144 | 0.03 | migration z between -2 and 2; enough cells | 0.81 | 5877 |
| BAMBI | SID255356474 | -1.72 | under 3300 nuclei; migration not judged | 0.44 | 2411 |
| CALN1 | SID255361066 | -1.5 | migration z between -2 and 2; enough cells | 0.5 | 4334 |
| CFC1 | SID255358978 | 1 | migration z between -2 and 2; enough cells | 1.14 | 6104 |
| NFIC | SID255351222 | 1.2 | migration z between -2 and 2; enough cells | 1.04 | 5768 |
| STARD3 | SID255355470 | 0.54 | migration z between -2 and 2; enough cells | 1.02 | 6145 |
| ZNF212 | SID255353357 | -1.18 | migration z between -2 and 2; enough cells | 0.58 | 5146 |
| PDPK1 | SID255351496 | 0.02 | migration z between -2 and 2; enough cells | 0.81 | 6484 |

Continued (8 carried over from the part before).
| Gene | PubChem SID | migration robust z-score | migration class with cell-count check | migration relative to mock | nuclei per well, duplicate mean |
| --- | --- | --- | --- | --- | --- |
| ABCE1 | SID255352144 | 0.03 | migration z between -2 and 2; enough cells | 0.81 | 5877 |
| BAMBI | SID255356474 | -1.72 | under 3300 nuclei; migration not judged | 0.44 | 2411 |
| CALN1 | SID255361066 | -1.5 | migration z between -2 and 2; enough cells | 0.5 | 4334 |
| CFC1 | SID255358978 | 1 | migration z between -2 and 2; enough cells | 1.14 | 6104 |
| NFIC | SID255351222 | 1.2 | migration z between -2 and 2; enough cells | 1.04 | 5768 |
| STARD3 | SID255355470 | 0.54 | migration z between -2 and 2; enough cells | 1.02 | 6145 |
| ZNF212 | SID255353357 | -1.18 | migration z between -2 and 2; enough cells | 0.58 | 5146 |
| PDPK1 | SID255351496 | 0.02 | migration z between -2 and 2; enough cells | 0.81 | 6484 |
| FARP2 | SID255354611 | -0.29 | migration z between -2 and 2; enough cells | 0.81 | 5831 |
| MBOAT7 | SID255360230 | -1.2 | migration z between -2 and 2; enough cells | 0.57 | 4896 |
| IL2RB | SID255350450 | 0.96 | migration z between -2 and 2; enough cells | 0.99 | 5502 |
| LARP1 | SID255356189 | -0.84 | migration z between -2 and 2; enough cells | 0.66 | 6066 |
| HP | SID255350296 | -0.93 | migration z between -2 and 2; enough cells | 0.62 | 4738 |
| ACTA1 | SID255348153 | 0.73 | migration z between -2 and 2; enough cells | 1.07 | 6197 |
| CCL11 | SID255352326 | -0.24 | migration z between -2 and 2; enough cells | 0.82 | 5738 |
| TM2D2 | SID255361113 | -1.4 | migration z between -2 and 2; enough cells | 0.52 | 5215 |
| HOXA2 | SID255350258 | 1.4 | migration z between -2 and 2; enough cells | 1.08 | 5090 |
| MTTP | SID255351066 | -0.68 | migration z between -2 and 2; enough cells | 0.68 | 6528 |
| VEGFA | SID255353102 | -0.97 | migration z between -2 and 2; enough cells | 0.64 | 6480 |
| WWP1 | SID255355557 | -0.21 | migration z between -2 and 2; enough cells | 0.76 | 5626 |
| PYROXD1 | SID255360561 | -0.38 | migration z between -2 and 2; enough cells | 0.78 | 5863 |
| IGFBP4 | SID255350430 | -0.99 | migration z between -2 and 2; enough cells | 0.63 | 5837 |
| MICAL1 | SID255359995 | -0.3 | migration z between -2 and 2; enough cells | 0.8 | 7132 |
| NUP210L | SID255361894 | 0.65 | migration z between -2 and 2; enough cells | 1.06 | 5823 |
| FFAR1 | SID255350007 | -0.1 | migration z between -2 and 2; enough cells | 0.78 | 6535 |
| MBOAT1 | SID255363585 | 0.38 | migration z between -2 and 2; enough cells | 0.98 | 5764 |
| CLCNKB | SID255348957 | -1.01 | migration z between -2 and 2; enough cells | 0.61 | 5022 |
| UNKL | SID255359965 | -1.22 | migration z between -2 and 2; enough cells | 0.57 | 5773 |
| GNAQ | SID255349938 | -1.89 | migration z between -2 and 2; enough cells | 0.39 | 5110 |
| H3-4 | SID255353449 | -1.58 | migration z between -2 and 2; enough cells | 0.48 | 4364 |
| OR6C68 | SID255365833 | -0.55 | migration z between -2 and 2; enough cells | 0.74 | 5224 |
| EXOC3 | SID255355761 | -0.06 | migration z between -2 and 2; enough cells | 0.86 | 5209 |
| ERCC3 | SID255349548 | 0.18 | migration z between -2 and 2; enough cells | 0.84 | 4410 |
| AVPR2 | SID255348492 | -0.8 | migration z between -2 and 2; enough cells | 0.65 | 5670 |
| GRIN2A | SID255350042 | 0.24 | migration z between -2 and 2; enough cells | 0.85 | 4710 |
| PLEKHA5 | SID255358034 | -3.38 | under 3300 nuclei; migration not judged | 0.01 | 3145 |
| USP10 | SID255354035 | 0.67 | migration z between -2 and 2; enough cells | 0.94 | 5360 |
| CDK6 | SID255348841 | -1.12 | migration z between -2 and 2; enough cells | 0.59 | 4901 |
